Assay results from article PMC12404750.
These are yes or no findings as the source states them, for the method shown. Binding seen in cells or lysates may run through a third protein. Here binding means that the protein was enriched with, or labelled near, the bait; the list need not be complete. Values belong to the binder of their own block, whether it stands above or below them.

Molecular target: T1, Cullin 5 (mouse (endogenous in cultured HSPCs and bone marrow cells)), Q9D5V5
T1 chain: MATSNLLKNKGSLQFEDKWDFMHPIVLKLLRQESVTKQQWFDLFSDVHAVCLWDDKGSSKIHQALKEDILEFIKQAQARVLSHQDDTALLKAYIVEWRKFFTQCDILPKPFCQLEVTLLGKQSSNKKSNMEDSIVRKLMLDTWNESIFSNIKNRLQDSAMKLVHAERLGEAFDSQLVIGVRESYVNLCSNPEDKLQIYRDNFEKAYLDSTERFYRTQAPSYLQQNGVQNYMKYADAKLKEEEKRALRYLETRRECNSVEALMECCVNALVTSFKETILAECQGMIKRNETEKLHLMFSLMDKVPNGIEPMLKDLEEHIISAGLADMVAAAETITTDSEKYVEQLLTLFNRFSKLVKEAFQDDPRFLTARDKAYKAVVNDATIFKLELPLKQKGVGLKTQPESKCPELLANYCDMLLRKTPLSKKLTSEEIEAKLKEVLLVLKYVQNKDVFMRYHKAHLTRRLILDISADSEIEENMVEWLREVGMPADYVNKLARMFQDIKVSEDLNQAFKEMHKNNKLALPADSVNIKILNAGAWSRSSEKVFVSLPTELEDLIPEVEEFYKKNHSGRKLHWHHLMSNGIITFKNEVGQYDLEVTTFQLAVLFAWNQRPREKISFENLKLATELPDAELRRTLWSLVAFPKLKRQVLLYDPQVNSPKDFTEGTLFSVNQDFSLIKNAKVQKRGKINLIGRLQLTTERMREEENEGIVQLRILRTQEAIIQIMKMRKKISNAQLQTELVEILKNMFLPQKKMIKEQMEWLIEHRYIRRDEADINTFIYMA
Experiment: affinity purification with mass spectrometry; anti-CUL5 antibody (4 ug/mg) or rabbit IgG isotype control, Dynabeads; lysate (1% NP-40, 100 mM NaCl, 50 mM Tris-HCl) of HSPCs expanded from WT CD34lo HSCs with TPO, SCF and IL-3, bortezomib 50 nM for 2 hours before harvest; overnight at 4°C; tandem mass spectrometry
Settings: remark: other sources report otherwise

- binding: binds
B1: CIS, Q62225 1-257 (protein)
chain: MVLCVQGSCPLLAVEQIGRRPLWAQSLELPGPAMQPLPTGAFPEEVTEETPVQAENEPKVLDPEGDLLCIAKTFSYLRESGWYWGSITASEARQHLQKMPEGTFLVRDSTHPSYLFTLSVKTTRGPTNVRIEYADSSFRLDSNCLSRPRILAFPDVVSLVQHYVASCAADTRSDSPDPAPTPALPMSKQDAPSDSVLPIPVATAVHLKLVQPFVRRSSARSLQHLCRLVINRLVADVDCLPLPRRMADYLRQYPFQL

- binding: binds
B2: ASB6, Q91ZU1 1-418 (protein)
chain: MPFLHGFRRIIFEYQPLVDAILGALGIQDLERQEPLDDSASSEESRILVLTELLEQKAHSPFYQEGVSNALLKMAELGLTRAAAVLLQSGANLNFEDPVTYYTALHIAVLRNQPDMVELLVRHGADINRRDRIHESSPLDLASEEPERLPCLQRLLDLGADVNAADKNGKTALLHALASSDGVQIHNTENIRLLLEGGADVKATTKDGDTVFTCIIFLLGETVCGDKEEAPMINRFCFQVTQLLLAHGADPSECPAHESLTHICLKSFKLHFPLLCFLLESGAAYNCSLHGASCWSGFNLVFERLCSHPGCAEDDSHIELLHKAETVLDLMVTSSQRLQLPENLNIHPVGSLAGKIQALHASLRQLESYPPPLKHLCRVSIRLCLRPWPVDTKVKALPLPDRLKWYLLSAHSDTQDTC
